Values from PubChem BioAssay AID1159584 (Peter MacCallum Cancer Centre, 2016)
Here is a random part of about 18,000 reagents. Further read-outs or replicates are left out here. The record does not give: the amount of reagent, the time to read-out.

- Screen: 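Knock-downs that harm CDH1-null cells more than parental MCF10A cells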 (primary screen)
- Cells: human MCF10A breast epithelial cells, parental and CDH1-null
- Knock-down reagent: siRNA against human genes
- Read-out: 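ATP luminescence (CellTiter-Glo) viability per line relative to mean mock wells over all plates, and the ratio of CDH1-null to parental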
- Direction: CDH1-null / parental viability ratio: higher = CDH1-null cells survive relatively better than parental

| target | CDH1-null / parental viability ratio |
| --- | --- |
| PPIL4 (GeneID 85313) | 1.02 |
| MED12 (GeneID 9968) | 1.03 |
| USP2 (GeneID 9099) | 1.35 |
| NPIPB7 (GeneID 440350) | 0.83 |
| PLEKHH1 (GeneID 57475) | 0.78 |
| MRGPRX2 (GeneID 117194) | 1.15 |
| COX5B (GeneID 1329) | 1 |
| TNFRSF8 (GeneID 943) | 0.62 |
| NTSR2 (GeneID 23620) | 1.5 |
| RRP1B (GeneID 23076) | 1.02 |
| USP21 (GeneID 27005) | 1.56 |
| SLC5A6 (GeneID 8884) | 1.05 |
| MT1M (GeneID 4499) | 1.06 |
| PAPOLB (GeneID 56903) | 0.82 |
| SPATA45 (GeneID 149643) | 1 |
| GPN1 (GeneID 11321) | 1.59 |
| ANO3 (GeneID 63982) | 1.58 |
| SLC25A33 (GeneID 84275) | 1.22 |
| CIMAP1B (GeneID 440836) | 1.6 |
| PCDHGC5 (GeneID 56097) | 0.95 |
| SPOPL (GeneID 339745) | 1.19 |
| SLC1A3 (GeneID 6507) | 0.66 |
| PRKCB (GeneID 5579) | 0.84 |
| CAPN11 (GeneID 11131) | 1.15 |
| NTRK2 (GeneID 4915) | 0.92 |
| ABCC2 (GeneID 1244) | 0.98 |
| ALOX5 (GeneID 240) | 1.24 |
| MPDU1 (GeneID 9526) | 0.89 |
| NACA (GeneID 4666) | 1 |
| SYNCRIP (GeneID 10492) | 0.84 |
| BRIX1 (GeneID 55299) | 1.18 |
| SIGLEC10 (GeneID 89790) | 1.13 |
| CYB5R5 (GeneID 606495) | 1.01 |
| PTK2B (GeneID 2185) | 0.88 |
| GIMAP4 (GeneID 55303) | 0.99 |
| OR1A1 (GeneID 8383) | 1.49 |
| KLB (GeneID 152831) | 0.93 |
| STT3A (GeneID 3703) | 0.97 |
| LMBR1L (GeneID 55716) | 1.1 |
| FN3KRP (GeneID 79672) | 0.74 |
| FADS2 (GeneID 9415) | 0.84 |
| CCL20 (GeneID 6364) | 0.98 |
| WDR17 (GeneID 116966) | 0.8 |
| TRIM73 (GeneID 375593) | 0.76 |
| KRT7 (GeneID 3855) | 0.95 |
| CCDC81 (GeneID 60494) | 0.77 |
| SHISAL2A (GeneID 348378) | 0.83 |
| DHX9 (GeneID 1660) | 1.2 |
| H1-0 (GeneID 3005) | 0.82 |
| KCNT2 (GeneID 343450) | 1.13 |
| AP4E1 (GeneID 23431) | 1.21 |
| PSENEN (GeneID 55851) | 1.1 |
| P2RX2 (GeneID 22953) | 0.95 |
| CLP1 (GeneID 10978) | 0.87 |
| OR2A4 (GeneID 79541) | 0.93 |
| NANOS1 (GeneID 340719) | 1.09 |
| MAPK4 (GeneID 5596) | 0.88 |
| CAMK2D (GeneID 817) | 1.07 |
| GSS (GeneID 2937) | 0.88 |
| ACOT8 (GeneID 10005) | 0.94 |
| CILP2 (GeneID 148113) | 1.09 |
| FBXO10 (GeneID 26267) | 1.03 |
| SETD1A (GeneID 9739) | 1.14 |
| RDH10 (GeneID 157506) | 0.84 |
| IDH3G (GeneID 3421) | 0.67 |
| SMYD3 (GeneID 64754) | 1.11 |
| VMA22 (GeneID 84317) | 1.15 |
| TNKS2 (GeneID 80351) | 0.96 |

Entries listed so far whose gene name begins with N or n (5):
| target | CDH1-null / parental viability ratio |
| --- | --- |
| NPIPB7 (GeneID 440350) | 0.83 |
| NTSR2 (GeneID 23620) | 1.5 |
| NTRK2 (GeneID 4915) | 0.92 |
| NACA (GeneID 4666) | 1 |
| NANOS1 (GeneID 340719) | 1.09 |
